# Experimental data as given in paper PMC12339988.
# By UniProt entry, the sequences of proteins in these tests, tags left out. Where a name states a change or a piece, a line headed by the entry shows the natural chain unless it says otherwise. Residues count along the entry.
# UniProt P40763: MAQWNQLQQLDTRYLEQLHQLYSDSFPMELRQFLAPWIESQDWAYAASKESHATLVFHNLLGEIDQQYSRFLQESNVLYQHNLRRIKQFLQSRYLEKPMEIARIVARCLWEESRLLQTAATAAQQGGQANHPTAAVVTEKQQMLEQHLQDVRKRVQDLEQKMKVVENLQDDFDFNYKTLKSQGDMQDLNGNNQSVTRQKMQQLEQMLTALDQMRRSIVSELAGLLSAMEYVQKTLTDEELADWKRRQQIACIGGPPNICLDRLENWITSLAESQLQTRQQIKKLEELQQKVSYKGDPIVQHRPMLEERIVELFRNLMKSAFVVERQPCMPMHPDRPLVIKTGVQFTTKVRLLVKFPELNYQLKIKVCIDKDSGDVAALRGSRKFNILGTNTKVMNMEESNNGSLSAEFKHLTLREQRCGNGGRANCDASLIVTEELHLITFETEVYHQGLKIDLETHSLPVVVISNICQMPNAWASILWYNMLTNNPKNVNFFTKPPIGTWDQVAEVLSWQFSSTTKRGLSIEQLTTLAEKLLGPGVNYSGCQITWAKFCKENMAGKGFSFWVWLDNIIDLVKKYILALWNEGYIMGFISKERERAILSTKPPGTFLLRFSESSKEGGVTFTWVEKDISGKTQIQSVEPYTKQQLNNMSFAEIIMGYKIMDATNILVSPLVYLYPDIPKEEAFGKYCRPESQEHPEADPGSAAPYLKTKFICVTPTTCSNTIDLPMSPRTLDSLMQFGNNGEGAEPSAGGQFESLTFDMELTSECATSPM
# UniProt P33993: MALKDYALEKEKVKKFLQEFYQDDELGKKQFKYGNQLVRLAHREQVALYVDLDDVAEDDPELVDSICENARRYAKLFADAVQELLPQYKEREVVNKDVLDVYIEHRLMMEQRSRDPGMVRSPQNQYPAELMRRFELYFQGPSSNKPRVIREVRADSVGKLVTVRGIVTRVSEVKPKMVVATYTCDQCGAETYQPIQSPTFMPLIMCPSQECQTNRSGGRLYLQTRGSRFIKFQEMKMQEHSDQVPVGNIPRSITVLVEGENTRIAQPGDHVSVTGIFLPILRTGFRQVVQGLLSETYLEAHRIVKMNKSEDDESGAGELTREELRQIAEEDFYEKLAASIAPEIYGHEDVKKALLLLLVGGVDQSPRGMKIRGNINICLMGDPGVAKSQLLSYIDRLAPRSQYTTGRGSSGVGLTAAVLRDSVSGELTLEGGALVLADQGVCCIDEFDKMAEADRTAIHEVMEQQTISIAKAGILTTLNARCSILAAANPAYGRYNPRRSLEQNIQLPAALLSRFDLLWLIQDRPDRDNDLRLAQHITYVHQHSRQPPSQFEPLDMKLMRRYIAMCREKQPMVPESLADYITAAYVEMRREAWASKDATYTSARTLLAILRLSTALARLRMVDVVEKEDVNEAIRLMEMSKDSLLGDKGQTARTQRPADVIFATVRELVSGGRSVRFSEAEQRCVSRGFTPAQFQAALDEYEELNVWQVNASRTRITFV
# MCM7 N-terminal domain (amino acids 10-140), for Co-IP: residues 10-140 of P33993
# MCM7 AAA domain (amino acids 373-526), for Co-IP: residues 373-526 of P33993
# These are yes or no findings as the source states them, for the method shown. In cells and extracts the contact can be indirect. Some binding calls cover weakened binding; strength is not graded here. For part of these data: Sequences can lack the tags named with a protein.
# T1: SHCBP1, endogenous (human (endogenous in HepG2 and HL7702)) (UniProt Q8NEM2)
# T1 sequence: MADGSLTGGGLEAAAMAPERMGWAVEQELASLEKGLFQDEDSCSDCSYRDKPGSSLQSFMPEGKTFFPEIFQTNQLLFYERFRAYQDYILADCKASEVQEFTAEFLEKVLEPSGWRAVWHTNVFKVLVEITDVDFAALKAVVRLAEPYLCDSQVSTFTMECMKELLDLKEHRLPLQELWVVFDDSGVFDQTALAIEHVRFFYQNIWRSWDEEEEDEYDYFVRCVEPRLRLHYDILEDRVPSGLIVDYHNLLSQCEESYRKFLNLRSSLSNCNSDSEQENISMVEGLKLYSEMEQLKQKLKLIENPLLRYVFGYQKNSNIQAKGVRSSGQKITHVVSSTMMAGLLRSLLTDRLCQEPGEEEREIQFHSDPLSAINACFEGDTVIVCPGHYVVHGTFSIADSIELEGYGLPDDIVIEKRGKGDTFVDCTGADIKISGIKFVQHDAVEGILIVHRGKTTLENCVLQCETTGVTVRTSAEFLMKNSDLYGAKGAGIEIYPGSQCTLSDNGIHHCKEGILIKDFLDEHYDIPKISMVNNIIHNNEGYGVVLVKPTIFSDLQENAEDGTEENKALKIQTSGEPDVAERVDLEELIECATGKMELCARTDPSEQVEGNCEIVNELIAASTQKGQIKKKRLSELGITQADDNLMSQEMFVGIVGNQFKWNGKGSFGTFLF
# Columns and labels:
# [1] = target: STAT3, endogenous (human (endogenous in HepG2)) (UniProt P40763); assay: co-IP; RACGAP1 and STAT3 in lysate of HepG2 cells transfected with shCtrl, shSHCBP1 or shMCM7
# [2] = target: T1, SHCBP1, endogenous (human (endogenous in HepG2 and HL7702)); assay: co-IP; endogenous SHCBP1 and RACGAP1 in HepG2 lysate; also in HepG2 cells transfected with shCtrl or shMCM7
# [3] = target: FLAG/HA-tagged MCM7 (full length) (UniProt P33993); assay: co-IP; MCM7 and SHCBP1 overexpressed in HEK293T cells (Fig. S6D)
# [4] = target: FLAG/HA-tagged MCM7 (full length) (UniProt P33993); assay: co-IP; FLAG/HA-tagged MCM7 and FLAG/HA-tagged SHCBP1 overexpressed in HepG2 cells
# [5] = target: MCM7 N-terminal domain (amino acids 10-140), for Co-IP (UniProt P33993); assay: co-IP; truncated MCM7 fragments with SHCBP1 (Fig. 4G); cell line not stated for this panel
# [6] = target: MCM7 AAA domain (amino acids 373-526), for Co-IP (UniProt P33993); assay: as above
binding [1],binding [2],binding [3],binding [4],binding [5],binding [6],Binder
binds,binds,–,–,–,–,"RACGAP1, endogenous (protein, UniProt Q9H0H5 1-632) MDTMMLNVRNLFEQLVRRVEILSEGNEVQFIQLAKDFEDFRKKWQRTDHELGKYKDLLMKAETERSALDVKLKHARNQVDVEIKRRQRAEADCEKLERQIQLIREMLMCDTSGSIQLSEEQKSALAFLNRGQPSSSNAGNKRLSTIDESGSILSDISFDKTDESLDWDSSLVKTFKLKKREKRRSTSRQFVDGPPGPVKKTRSIGSAVDQGNESIVAKTTVTVPNDGGPIEAVSTIETVPYWTRSRRKTGTLQPWNSDSTLNSRQLEPRTETDSVGTPQSNGGMRLHDFVSKTVIKPESCVPCGKRIKFGKLSLKCRDCRVVSHPECRDRCPLPCIPTLIGTPVKIGEGMLADFVSQTSPMIPSIVVHCVNEIEQRGLTETGLYRISGCDRTVKELKEKFLRVKTVPLLSKVDDIHAICSLLKDFLRNLKEPLLTFRLNRAFMEAAEITDEDNSIAAMYQAVGELPQANRDTLAFLMIHLQRVAQSPHTKMDVANLAKVFGPTIVAHAVPNPDPVTMLQDIKRQPKVVERLLSLPLEYWSQFMMVEQENIDPLHVIENSNAFSTPQTPDIKVSLLGPVTTPEHQLLKTPSSSSLSQRVRSTLTKNTPRFGSKSKSATNLGRQGNFFASPMLK"
–,–,binds,binds,binds,binds,"FLAG/HA-tagged SHCBP1 (protein, UniProt Q8NEM2 1-672) MADGSLTGGGLEAAAMAPERMGWAVEQELASLEKGLFQDEDSCSDCSYRDKPGSSLQSFMPEGKTFFPEIFQTNQLLFYERFRAYQDYILADCKASEVQEFTAEFLEKVLEPSGWRAVWHTNVFKVLVEITDVDFAALKAVVRLAEPYLCDSQVSTFTMECMKELLDLKEHRLPLQELWVVFDDSGVFDQTALAIEHVRFFYQNIWRSWDEEEEDEYDYFVRCVEPRLRLHYDILEDRVPSGLIVDYHNLLSQCEESYRKFLNLRSSLSNCNSDSEQENISMVEGLKLYSEMEQLKQKLKLIENPLLRYVFGYQKNSNIQAKGVRSSGQKITHVVSSTMMAGLLRSLLTDRLCQEPGEEEREIQFHSDPLSAINACFEGDTVIVCPGHYVVHGTFSIADSIELEGYGLPDDIVIEKRGKGDTFVDCTGADIKISGIKFVQHDAVEGILIVHRGKTTLENCVLQCETTGVTVRTSAEFLMKNSDLYGAKGAGIEIYPGSQCTLSDNGIHHCKEGILIKDFLDEHYDIPKISMVNNIIHNNEGYGVVLVKPTIFSDLQENAEDGTEENKALKIQTSGEPDVAERVDLEELIECATGKMELCARTDPSEQVEGNCEIVNELIAASTQKGQIKKKRLSELGITQADDNLMSQEMFVGIVGNQFKWNGKGSFGTFLF"
